According to patent publication US20250041300A1, “PHARMACEUTICAL COMBINATION COMPRISING ABEMACICLIB AND A PI3K AND/OR A MTOR INHIBITOR FOR THE TREATMENT OF MANTLE CELL LYMPHOMA” (Board of Regents, The University of Texas System, priority 2021, published 2025):
At least one structure is not confirmed: it was looked up by name or label, or the drawing left a doubt.

Columns and labels:
[1] = tested on: Mino-venetoclax-resistant xenograft; experiment: Mino-venetoclax-resistant xenograft model, tumor volume; type: in vivo; conditions: oral, daily, NSG mice
[2] = tested on: MCL cell lines; experiment: Cell cycle assay (propidium iodide, flow cytometry); type: cell-based; conditions: exposure for 24h

SMILES	tumor volume compared to the vehicle control ([1]; 25 mg/kg)	cell cycle arrest [2]	tumor volume compared to the vehicle control ([1]; 5 mg/kg)
CCN1CCN(Cc2ccc(Nc3ncc(F)c(-c4cc(F)c5nc(C)n(C(C)C)c5c4)n3)nc2)CC1 [abemaciclib]	significantly reduced tumor volume	cell cycle arrest at G1 phase	–
CC1(C)CCC(CN2CCN(c3ccc(C(=O)NS(=O)(=O)c4ccc(NCC5CCOCC5)c([N+](=O)[O-])c4)c(Oc4cnc5[nH]ccc5c4)c3)CC2)=C(c2ccc(Cl)cc2)C1 [venetoclax]	–	–	but not
